Measured values published in patent US7445894B2, “Compositions and methods for detection and isolation of phosphorylated molecules” (priority 2002, dated 2008).

Test system: Abl peptide
Assay: Microarray detection of Abl peptide labeled with ATP-γ-S or ATP by Abl Protein Tyrosine Kinase

Rhod-5F [Compound 2] was tested, and the “Sensitivity of detection after kinase reaction” value (control reaction using ATP) was 0.325 pg and the “Sensitivity of detection after kinase reaction” value (peptide labeled using ATP-γ-S (phosphorothioate)) was 2.6 pg.
